{
  "source": "patent US10722599B2",
  "about": "“Lipid assemblies and uses thereof and some pH and electrostatic modulating lipids to be used in said assemblies” (Yissum Research Development Company of the Hebrew …, priority 2015, dated 2020)",
  "key": {"[1]": {"system": "IL-6 and TNF-α secretion by PBMC", "test": "Innate immune activation: cytokine induction in PBMC", "conditions": "200 and 20 nM RAC1 siRNA, 24±2 hours, ELISA"}, "[2]": {"system": "IFIT1, MX1, OAS1, ISG15 mRNA in PBMC", "conditions": "200 and 20 nM RAC1 siRNA, 24±2 hours, qPCR"}},
  "data": [
    {"smiles": "CCCc1nc2c(N)nc3ccccc3c2s1", "note": "[CL075]", "values": [
      {"measurement": "IL-6 and TNFα cytokine secretion", "setting": "[1]", "result": "induced high and significant IL-6 and TNFα secretion"},
      {"measurement": "mRNA levels of IFIT1, MX1, OAS1 and ISG15", "setting": "[2]", "result": "increase in the expression levels of the genes tested"}
    ]}
  ]
}
